Data from publication PMC5688144, “Assay interference and off-target liabilities of reported histone acetyltransferase inhibitors” (Nature Communications, 2017).

How the values were obtained:
[1] = UPLC-MS gross compound stability in assay buffer; settings: 25 mM sodium phosphate, pH 7.0, 30 °C, no GSH or CoA
Description: Select compounds were incubated up to 24 h for additional stability analyses. Chromatograms and mass spectra were qualitatively analyzed for the formation of new peaks and/or loss of parent peaks.

Absorbance spectra = format: physicochemical; settings: 25 mM sodium phosphate, pH 7.0
Description: Selected test compounds were assessed for absorption between 300 and 750 nm. Most compound absorption spectra were obtained at 100, 50, and 10 μM final compound concentrations in ALARM NMR buffer (25 mM sodium phosphate, pH 7.0). Final concentration of DMSO was constant at 2.0% (v/v). Compounds were allowed to incubate at RT in buffer for 10 min in UV-transparent polystyrene 384-well plates. Absorbance spectra were then obtained on a SpectraMax M3 or BMG Labtech CLARIOstar microplate reader at 25 °C. Significant absorbance was defined as molar absorptivity constants greater than 2000 M^−1 cm^−1 at wavelengths greater than 300 nm.

c1cc(SSc2ccns2)sn1 [Compound 2, NU-9056]
UPLC-MS buffer stability counter-screen [1]: Grossly stable
Absorption max (nm) (Absorbance spectra): 290 nm
Absorbance counter-screen (Absorbance spectra; 300-750 nm): Negative
